± gives the standard deviation of the averaged measurements. Small differences around the control level are noise.
Tests used:
Experiment in all cases: level (log10 ratio to DMSO vehicle control); higher = higher biomarker level / cell amount than vehicle control
[1] = compound: C=CC(=O)OCCC(F)(F)C(F)(F)C(F)(F)C(F)(F)C(F)(F)C(F)(F)C(F)(F)C(F)(F)F [8:2 Fluorotelomer acrylate]; conditions: 2200 nM; in DMSO
Description: (§1)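 BioMAP Diversity Plus panel of 12 human primary cell co-culture systems (3C, 4H, LPS, SAg, BT, BF4T, BE3C, CASM3C, HDF3CGF, KF3CT, MyoF, Mphg). Compounds were added 1 h before stimulation and left for 24 h (MyoF 48 h; BT 72 h for soluble read-outs or 6 d for IgG). Biomarkers were read by ELISA, cytotoxicity by SRB, PBMC viability and proliferation by Alamar Blue. Each well value was divided by the mean of 8 DMSO control wells on the same plate and log10 transformed; duplicate blinded samples were tested at 4 concentrations.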

[2] = compound: FC(F)(F)C(F)(F)C(F)(F)C(F)(F)C(F)(F)C(F)(F)I [Perfluoro-1-iodohexane]; conditions: in DMSO
Description: as §1

[3] = compound: C=CC(=O)OCCC(F)(F)C(F)(F)C(F)(F)C(F)(F)F [2-(Perfluorobutyl)ethyl acrylate]; conditions: 2200 nM; in DMSO
Description: as §1

[4] = compound: O=S(=O)(O)C(F)(F)C(F)(F)C(F)(F)C(F)(F)C(F)(F)C(F)(F)F [Perfluorohexanesulfonic acid]; conditions: 2200 nM; in DMSO
Description: as §1

[5] = compound: FC(F)(F)C(F)(C(F)(F)F)C(F)(F)C(F)(F)CC1CO1 [3-(Perfluoro-3-methylbutyl)-1,2-propenoxide]; conditions: in DMSO
Description: as §1

[6] = compound: FC(F)(I)C(F)(F)C(F)(F)C(F)(F)C(F)(F)C(F)(F)I [1,6-Diiodoperfluorohexane]; conditions: 2200 nM; in DMSO
Description: as §1

[7] = compound: C=CC(=O)OCC(F)(F)C(F)(F)C(F)(F)COC(=O)C=C [1H,1H,5H,5H-Perfluoro-1,5-pentanediol diacrylate]; conditions: 2200 nM; in DMSO
Description: as §1

[8] = compound: OCCCC(F)(F)C(F)(F)C(F)(F)C(F)(F)C(F)(F)C(F)(F)C(F)(F)F [7:3 Fluorotelomer alcohol]; conditions: 2200 nM; in DMSO
Description: as §1

[9] = compound: OCC(F)(F)C(F)(F)C(F)(F)CO [Hexafluoroamylene glycol]; conditions: 2200 nM; in DMSO
Description: as §1

[10] = compound: O=C(Cl)C(F)(F)C(F)(F)C(F)(F)C(=O)Cl [Hexafluoroglutaryl chloride]; conditions: 2200 nM; in DMSO
Description: as §1

[11] = compound: O=C(O)C=C(C(F)(F)F)C(F)(F)F [3,3-Bis(trifluoromethyl)-2-propenoic acid]; conditions: in DMSO
Description: as §1

[12] = compound: O=S(=O)(O)CCC(F)(F)C(F)(F)C(F)(F)C(F)(F)F [4:2 Fluorotelomer sulfonic acid]; conditions: 2200 nM; in DMSO
Description: as §1

[13] = compound: O=C(O)C(F)(F)C(F)(F)C(F)(F)C(F)(F)C(F)(F)C(F)(F)C(F)(F)C(F)(F)C(F)(F)C(F)(F)C(F)(F)C(F)(F)C(F)(F)F [Perfluorotetradecanoic acid]; conditions: in DMSO
Description: as §1

Row | Test System | level (log10) [1] | level (log10) ([2]; 2200 nM) | level (log10) ([2]; 6700 nM) | level (log10) ([2]; 20000 nM) | level (log10) ([2]; 60000 nM) | level (log10) [3] | level (log10) [4] | level (log10) ([5]; 740 nM) | level (log10) ([5]; 2200 nM) | level (log10) [6] | level (log10) [7] | level (log10) [8] | level (log10) [9] | level (log10) [10] | level (log10) ([11]; 2200 nM) | level (log10) ([11]; 6700 nM) | level (log10) ([11]; 20000 nM) | level (log10) ([11]; 60000 nM) | level (log10) [12] | level (log10) ([13]; 740 nM) | level (log10) ([13]; 2200 nM)
1 | CASM3C:SRB | 0.014 ± 0.0099 | 0.008 ± 0.0014 | 0.0035 ± 0.013 | 0.0015 ± 0.0021 | -0.0015 ± 0.016 | 0.0045 ± 0.016 | -0.0045 ± 0.0064 | 0.001 ± 0.0085 | -0.007 ± 0.0085 | 0.0095 ± 0.00071 | 0.0045 ± 0.011 | 0.0085 ± 0.0078 | -0.001 ± 0.0071 | 0.0075 ± 0.00071 | -0.0015 ± 0.018 | 0.0145 ± 0.016 | -0.0075 ± 0.0021 | -0.027 | 0.0045 ± 0.005 | 0.008 ± 0.013 | -0.0035 ± 0.0092
2 | 3C:CD142/Tissue Factor | 0.0205 ± 0.029 | -0.001 ± 0.027 | 0.0025 ± 0.032 | 0.0005 ± 0.013 | 0.0185 ± 0.022 | -0.002 ± 0.05 | 0.006 ± 0.0057 | 0.0115 ± 0.015 | 0.001 ± 0.017 | -0.005 ± 0.05 | -0.0595 ± 0.063 | -0.0205 ± 0.0021 | -0.0175 ± 0.057 | -0.0215 ± 0.037 | 0.0565 ± 0.036 | 0.0445 ± 0.018 | -0.022 ± 0.037 | -0.138 ± 0.052 | 0.005 ± 0.02 | 0.0415 ± 0.046 | 0.0315 ± 0.061
3 | KF3CT:uPA | -0.0005 ± 0.0035 | -0.007 ± 0.027 | 0.013 ± 0.0042 | 0.006 ± 0.023 | 0.007 ± 0.017 | -0.0205 ± 0.022 | 0.006 ± 0.0014 | -0.014 ± 0.031 | 0.006 ± 0.028 | 0.017 ± 0.011 | 0.006 ± 0.013 | -0.0295 ± 0.042 | 0.0085 ± 0.0078 | 0.0235 ± 0.0035 | 0.0135 ± 0.023 | 0.027 ± 0.02 | 0.0275 ± 0.028 | 0.0325 ± 0.0021 | 0 ± 0.0071 | -0.002 ± 0.0042 | 0.019 ± 0.02
4 | CASM3C:Serum Amyloid A | 0.0035 ± 0.015 | 0.0045 ± 0.0092 | 0.0035 ± 0.042 | 0.008 ± 0.035 | 0.007 ± 0.025 | 0.0165 ± 0.057 | -0.008 ± 0.092 | 0.018 ± 0.054 | -0.0375 ± 0.016 | -0.0035 ± 0.029 | 0.007 ± 0.028 | -0.0125 ± 0.015 | 0.0095 ± 0.021 | -0.0045 ± 0.047 | -0.0005 ± 0.00071 | -0.013 ± 0.021 | -0.0185 ± 0.0092 | -0.005 ± 0.038 | -0.0095 ± 0.022 | 0.0325 ± 0.018 | 0.0125 ± 0.067
5 | BE3C:tPA | -0.0025 ± 0.064 | 0.0105 ± 0.043 | -0.008 ± 0.028 | -0.008 ± 0.023 | 0.0125 ± 0.028 | -0.0055 ± 0.046 | -0.015 ± 0.017 | 0.0115 ± 0.071 | -0.006 ± 0.03 | -0.031 ± 0.0014 | -0.002 ± 0.05 | -0.048 ± 0.024 | -0.0025 ± 0.023 | 0.015 ± 0.011 | -0.0965 ± 0.079 | -0.16 ± 0.041 | -0.166 ± 0.0042 | -0.179 ± 0.073 | -0.0095 ± 0.021 | 0.0435 ± 0.019 | 0.046 ± 0.095
6 | BT:Secreted IgG | 0.001 ± 0.021 | 0.0135 ± 0.0035 | 0.0195 ± 0.023 | -0.0165 ± 0.043 | -0.0315 ± 0.081 | -0.0165 ± 0.011 | 0.0125 ± 0.011 | 0.034 ± 0.03 | 0.0415 ± 0.016 | 0.005 ± 0.014 | -0.02 ± 0.034 | -0.01 ± 0.048 | 0.01 ± 0.041 | -0.0025 ± 0.016 | 0.0235 ± 0.016 | 0.0155 ± 0.005 | -0.0375 ± 0.052 | -0.597 ± 0.16 | -0.011 ± 0.045 | -0.0025 ± 0.035 | -0.022 ± 0.023

From the supplement of paper PMC10331698
